The results in this text go back to paper PMC6533717.

Sequences of proteins named here, by UniProt entry; tags and fusion partners are left off.
UniProt P20226: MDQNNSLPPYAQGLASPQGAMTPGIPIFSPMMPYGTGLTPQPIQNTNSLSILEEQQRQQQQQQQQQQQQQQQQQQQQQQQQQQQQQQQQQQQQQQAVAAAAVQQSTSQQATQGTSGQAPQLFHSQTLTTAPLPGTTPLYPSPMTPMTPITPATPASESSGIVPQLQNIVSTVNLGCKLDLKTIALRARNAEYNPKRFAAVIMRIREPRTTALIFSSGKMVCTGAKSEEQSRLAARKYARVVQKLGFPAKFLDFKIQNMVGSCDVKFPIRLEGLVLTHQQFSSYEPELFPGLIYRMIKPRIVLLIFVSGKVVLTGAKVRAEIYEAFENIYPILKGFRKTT

The target in assay [1] is T1, FLAG-tagged Brf1 (B-related factor 1) (UniProt Q92994).
T1 sequence: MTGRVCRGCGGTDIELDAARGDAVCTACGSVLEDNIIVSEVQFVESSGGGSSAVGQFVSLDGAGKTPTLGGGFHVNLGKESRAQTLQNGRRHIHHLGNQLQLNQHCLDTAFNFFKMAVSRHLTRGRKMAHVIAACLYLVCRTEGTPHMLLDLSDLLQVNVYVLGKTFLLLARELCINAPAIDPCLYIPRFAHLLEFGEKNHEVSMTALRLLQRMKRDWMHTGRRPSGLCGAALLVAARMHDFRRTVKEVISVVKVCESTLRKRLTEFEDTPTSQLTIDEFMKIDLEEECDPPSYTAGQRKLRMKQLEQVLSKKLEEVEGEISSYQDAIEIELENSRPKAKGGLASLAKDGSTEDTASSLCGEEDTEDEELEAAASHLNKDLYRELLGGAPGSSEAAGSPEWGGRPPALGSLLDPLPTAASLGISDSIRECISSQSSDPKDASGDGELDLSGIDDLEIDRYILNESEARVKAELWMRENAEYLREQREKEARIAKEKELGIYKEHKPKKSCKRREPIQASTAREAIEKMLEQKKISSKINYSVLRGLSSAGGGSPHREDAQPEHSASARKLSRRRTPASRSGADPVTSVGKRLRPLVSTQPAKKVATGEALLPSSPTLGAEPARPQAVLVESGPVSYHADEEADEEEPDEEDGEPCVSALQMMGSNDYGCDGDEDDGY
In words: co-IP; RKO cells transfected with plasmids for FLAG- or Myc-tagged proteins, with or without triptolide; lysed in RIPA buffer (20 mM Tris-HCl pH 7.5, 150 mM NaCl, 1 mM EDTA, 1% NP-40); precipitated with FLAG beads at 4 °C overnight, washed 3 times; immunoblot. For orientation: A western blot detects proteins with antibodies after separation by electrophoresis.

In assay [2] the target is FLAG-tagged TBP (TATA box-binding protein) (UniProt P20226). The description is as above.
In assay [3] the target is T2, CFP-tagged Brf1 (UniProt Q92994).
T2 sequence: T1 sequence
In words: FRET or BRET; RKO cells co-expressing CFP- and YFP-tagged proteins, 24 h after transfection; excitation 458 nm, emission scanned 460-600 nm in a plate reader (VarioskanFlash). (In general: BRET reads energy transfer from a luciferase to a nearby fluorophore.)

Assay [4] deals with YFP-tagged TBP (UniProt P20226). The assay is described as above.

These are yes or no findings as the source states them, for the method shown. Binding seen in cells or lysates may run through a third protein. Some entries that bind do so weakly or less than the wild type. Sequences can lack the tags named with a protein.

For “TATA box-binding protein (TBP), endogenous (from UniProt P20226 1-339)”, the binding result in assay [1] is given as “binds”.

B1: POLR3D, one subunit of Pol III (endogenous) (protein, UniProt P05423 1-398)
chain: MSEGNAAGEPSTPGGPRPLLTGARGLIGRRPAPPLTPGRLPSIRSRDLTLGGVKKKTFTPNIISRKIKEEPKEEVTVKKEKRERDRDRQREGHGRGRGRPEVIQSHSIFEQGPAEMMKKKGNWDKTVDVSDMGPSHIINIKKEKRETDEETKQILRMLEKDDFLDDPGLRNDTRNMPVQLPLAHSGWLFKEENDEPDVKPWLAGPKEEDMEVDIPAVKVKEEPRDEEEEAKMKAPPKAARKTPGLPKDVSVAELLRELSLTKEEELLFLQLPDTLPGQPPTQDIKPIKTEVQGEDGQVVLIKQEKDREAKLAENACTLADLTEGQVGKLLIRKSGRVQLLLGKVTLDVTMGTACSFLQELVSVGLGDSRTGEMTVLGHVKHKLVCSPDFESLLDHKHR
B1: the binding entry in assay [1] and in assay [2] was “binds” throughout.

B2: YFP-tagged POLR3D (protein, UniProt P05423 1-398)
chain: B1 chain
Turning to B2, the binding result in assay [3] is “binds”.

B3: myc-tagged Brf1 (B-related factor 1) (protein, UniProt Q92994 1-677)
chain: T1 sequence
On to B3, for which the binding result in assay [2] is given as “binds”.

B4: CFP-tagged Brf1 (protein, UniProt Q92994 1-677)
chain: T1 sequence
Turning to B4, the binding entry in assay [4] is “binds”.
